Assay results: article PMC5749160, “Disruption of an RNA-binding hinge region abolishes LHP1-mediated epigenetic repression”

Molecular target: T1, GST-LHP1 (Arabidopsis thaliana (Col-0 cDNA)) (UniProt Q946J8)
T1 sequence (looked up, limits assumed): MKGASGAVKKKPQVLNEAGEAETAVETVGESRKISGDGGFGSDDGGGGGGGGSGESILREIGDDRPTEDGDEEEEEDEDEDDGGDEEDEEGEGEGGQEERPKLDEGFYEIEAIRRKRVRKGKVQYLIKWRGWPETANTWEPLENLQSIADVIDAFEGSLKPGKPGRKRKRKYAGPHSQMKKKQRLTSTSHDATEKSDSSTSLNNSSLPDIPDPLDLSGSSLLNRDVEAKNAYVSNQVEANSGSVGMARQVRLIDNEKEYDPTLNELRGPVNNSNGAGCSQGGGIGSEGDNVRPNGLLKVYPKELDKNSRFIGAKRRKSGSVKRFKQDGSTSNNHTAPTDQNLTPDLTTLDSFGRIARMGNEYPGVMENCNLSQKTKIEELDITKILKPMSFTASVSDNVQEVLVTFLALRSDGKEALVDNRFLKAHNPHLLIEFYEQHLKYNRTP
Test: EMSA
Conditions: lower affinity than ssRNA, EMSA: 20 mM HEPES-KOH pH 7.5, 100 mM KCl, 0.05% NP-40, 10 nM Cy5 probe (1 uL of 100 nM + 9 uL protein), 30 min room temperature, 1.6% TBE-agarose gel, recombinant protein, protein details: N-terminal GST (pGEX-4T-1), letters put together from the description

CTCCTCCGGCGATAAGTACGCCTTTTCCTTACCTGGGTTT (double strand) [FLC 40-bp dsDNA]
binding result (label: 5' Cy5 on strand 1): binds more weakly

CTCCTCCGGCGATAAGTACGCCTTTTCCTTACCTGGGTTT [FLC 40-nt ssDNA]
binding result (label: 5' Cy5, single-stranded DNA): binds more weakly

Construct, isoform or probe ends are uncertain for at least one entry. Weaker means in comparison with the reference protein, sequence or condition of that experiment. Where a protein sequence is shown, tags need not be part of it.
